# For at least one compound, name, drawing or mass did not settle the structure.
# Assays:
# primed H9 hESCs = test: Autophagy by costaining for LC3 and Lamp1 (LC3II puncta); type: cell-based, human; conditions: primed H9 in hESC medium, mTor inhibition for 3 hr
# Experimental: (§1) Immunostaining was performed using standard protocol to detect various antigens in cultured cells or frozen tissue sections. Briefly, cells or tissue sections were fixed in 4% paraformaldehyde (Sigma) for 20 min, treated with 0.1% Triton X-100 for 15 min at room temperature for permeabilization, blocked in 3% BSA for 1 hour at room temperature, and then incubated with the indicated primary antibodies (Table S1) overnight at 4° C. and secondary antibodies for 1 h at 37° C. Secondary antibodies were AlexaFluor 488, 594, and 647 (1:1,000, Thermo fisher Scientific). Alkaline phosphatase (AP) staining was performed using the Alkaline Phosphatase Kit (Millipore). Diaminobenzidine (DAB) staining was also used to detect GFP expression in frozen embryo sections according to manufacturer's protocol (Vector Laboratories). Briefly, the frozen sections on slides were thawed at room temperature for 5 min. Then the slides were treated with 0.3% H2O2 solution in PBS at room temperature for 10 min to block endogenous peroxidase activity, and then treated with 3% BSA for 45 min for blocking. […] Cells were then imaged on a Leica DMI6000B fluorescence microscope. Quantification of LC3II puncta was performed using NIH ImageJ with the AUTOCOUNTER pluggin, which calculates the percentage of cell area covered by LC3II puncta.
# TFE3 = test: Torin1/rapamycin-induced nuclear translocation of TFE3 (immunostaining); type: cell-based, human; conditions: primed H9 hESCs; inhibition of mTor
# Experimental: We named this medium 2iLI.
# as §1
structure (smiles),measurement,setting,value
CO[C@H]1C[C@@H]2CC[C@@H](C)[C@@](O)(O2)C(=O)C(=O)N2CCCC[C@H]2C(=O)O[C@H]([C@H](C)C[C@@H]2CC[C@@H](O)[C@H](OC)C2)CC(=O)[C@H](C)/C=C(\C)[C@@H](O)[C@@H](OC)C(=O)[C@H](C)C[C@H](C)/C=C/C=C/C=C/1C [rapamycin],induction of autophagy,primed H9 hESCs,induced autophagy
same,translocation of TFE3 from cytoplasm to nucleus,TFE3,induced rapid translocation of TFE3 from cytoplasm to nucleus
